Taken from: PubChem BioAssay AID1159584 (Peter MacCallum Cancer Centre, 2016)
Purpose: 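Genes whose loss is lethal only together with E-cadherin loss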 (primary screen). Cell system: human MCF10A breast epithelial cells, parental and CDH1-null. Reagent: siRNA against human genes. Measurement: 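ATP luminescence (CellTiter-Glo) viability per line relative to mean mock wells over all plates, and the ratio of CDH1-null to parental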. Direction: CDH1-null / parental viability ratio: higher = CDH1-null cells survive relatively better than parental.
Here is one part, drawn at random, of about 18,000 deposited reagents. Not all columns of the deposit are shown. Not given: the amount of reagent, the time to read-out.

no.	target	CDH1-null / parental viability ratio
1	GK5	0.96
2	GABBR1	1.28
3	LINC02870	1.24
4	C11orf52	0.92
5	GOLIM4	1.11
6	CIMAP1C	0.68
7	RBM38	1.4
8	ANKRD53	0.78
9	RGS10	1.08
10	MRPL36	0.93
11	KCTD12	1.71
12	ACSL5	0.79
13	GYS2	0.86
14	ZNF490	0.44
15	MGMT	1.19
16	LEMD3	1.45
17	BLOC1S3	0.82
18	TMTC4	1.37
19	TMEM230	1
20	DENND2C	0.87
21	PRICKLE3	0.98
22	MRAS	1.02
23	SAP130	1.13
24	ABTB1	1.05
25	ERN1	1.03
26	USP24	1.21
27	SDE2	1.22
28	KCNK12	1.06
29	NDUFA8	1.34
30	NTN4	0.97
31	IGHMBP2	0.81
32	TRIM50	0.7
33	PIP4K2B	0.89
34	PLAG1	1.22
35	CNOT2	0.83
36	TMPRSS12	0.91
37	FGF5	0.92
38	PIR	1.09
39	HECTD3	1.14
40	TRAPPC14	0.69
41	CDCA5	1.13
42	PPP2R2C	1.58
43	LINC01588	1.74
44	AFAP1L1	0.86
45	HCN2	1.04
46	KRTAP21-2	0.78
47	C17orf78	0.87
48	PPFIA2	1.15
49	PLCD4	1.08
50	THAP5	1.22
51	PAFAH2	0.94
52	POP5	1.15
53	OR52L1	1.15
54	PFKP	0.89
55	POLR2L	0.89
56	EEF1AKMT1	0.96
57	CCDC80	0.98
58	ZNF287	1.27
59	SANBR	0.99
60	DENND6B	1.13
61	CLCC1	1.11
62	SKP1	0.86
63	ZBTB44	1
64	TRIP11	1.13
65	TMEM179B	0.97
66	RECQL	0.95
67	LIPA	0.78
68	ENAH	1.13
69	SMC3	1.03
70	SGCB	0.92
71	LIMCH1	1.11
72	BRD3	0.93
73	OR5AS1	1.04
74	ALKBH3	1.02
75	CNTN4	0.9
76	ROCK2	0.93
77	YPEL2	1.13
78	HLA-DPA1	0.99
79	TSBP1	0.91
80	DMP1	1.01
81	CCDC60	0.81
82	ALOX15	1.23
83	TEX15	1.22
84	TPD52	1.21
85	PCYT1A	1.29
86	SCGB1C1	1
87	NEK10	0.84
